Measurements from paper PMC12772958.
Changes are numbered by the printed parent chain. In names and notes the source's numbering stands. No constants are given. Whether binding was seen depends on the method and setting. Binding seen in cells or lysates may run through a third protein. Some results given as binding are weak or reduced against the parent protein; the word gives no strength. Sequences can lack the tags named with a protein. Each block holds one molecule with its values, some of them ahead of it.

The chains behind the UniProt entries cited, without tags or fusion partners. Residues count along the entry.
UniProt Q96B97: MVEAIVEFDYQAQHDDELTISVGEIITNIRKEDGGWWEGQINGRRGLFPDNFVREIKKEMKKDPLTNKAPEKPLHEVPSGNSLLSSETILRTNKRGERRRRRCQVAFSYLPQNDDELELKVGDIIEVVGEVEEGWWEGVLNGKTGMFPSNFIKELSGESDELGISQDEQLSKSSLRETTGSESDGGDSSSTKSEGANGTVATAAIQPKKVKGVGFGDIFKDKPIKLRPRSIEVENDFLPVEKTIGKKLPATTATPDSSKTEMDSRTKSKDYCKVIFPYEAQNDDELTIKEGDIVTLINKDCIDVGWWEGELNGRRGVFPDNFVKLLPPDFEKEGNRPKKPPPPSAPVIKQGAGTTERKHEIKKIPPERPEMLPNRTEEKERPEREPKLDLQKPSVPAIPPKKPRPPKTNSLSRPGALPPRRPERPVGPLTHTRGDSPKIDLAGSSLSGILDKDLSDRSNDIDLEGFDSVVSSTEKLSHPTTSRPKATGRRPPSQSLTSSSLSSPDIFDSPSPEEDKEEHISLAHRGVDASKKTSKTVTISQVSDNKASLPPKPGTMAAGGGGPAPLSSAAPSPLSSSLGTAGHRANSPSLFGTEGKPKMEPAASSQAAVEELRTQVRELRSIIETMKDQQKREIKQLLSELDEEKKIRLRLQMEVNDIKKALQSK
UniProt Q9ULH1, residues 589-1129: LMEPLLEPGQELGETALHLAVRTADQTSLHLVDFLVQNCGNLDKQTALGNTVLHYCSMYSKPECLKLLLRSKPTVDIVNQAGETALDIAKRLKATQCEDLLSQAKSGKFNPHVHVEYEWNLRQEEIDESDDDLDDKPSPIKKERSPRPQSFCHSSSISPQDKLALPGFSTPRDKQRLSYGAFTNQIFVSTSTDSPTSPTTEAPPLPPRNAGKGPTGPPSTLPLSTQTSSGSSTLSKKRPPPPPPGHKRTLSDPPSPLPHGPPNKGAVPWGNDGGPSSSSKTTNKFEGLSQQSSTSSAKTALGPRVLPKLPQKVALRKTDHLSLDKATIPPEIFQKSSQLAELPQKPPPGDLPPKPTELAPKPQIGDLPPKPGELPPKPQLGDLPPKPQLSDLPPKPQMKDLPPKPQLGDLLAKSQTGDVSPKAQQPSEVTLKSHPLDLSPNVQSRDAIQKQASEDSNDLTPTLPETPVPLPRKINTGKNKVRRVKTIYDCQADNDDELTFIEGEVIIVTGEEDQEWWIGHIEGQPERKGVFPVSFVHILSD

Experiments:
[1] = molecular target: T1, GFP–MYO1F tail (human) (UniProt O00160); test: co-IP; anti-GFP antibodies from RPE cells transiently expressing GFP–MYO1F tail or its C-terminal deletions; blot with antibodies to endogenous ASAP1 or SH3KBP1
T1 sequence: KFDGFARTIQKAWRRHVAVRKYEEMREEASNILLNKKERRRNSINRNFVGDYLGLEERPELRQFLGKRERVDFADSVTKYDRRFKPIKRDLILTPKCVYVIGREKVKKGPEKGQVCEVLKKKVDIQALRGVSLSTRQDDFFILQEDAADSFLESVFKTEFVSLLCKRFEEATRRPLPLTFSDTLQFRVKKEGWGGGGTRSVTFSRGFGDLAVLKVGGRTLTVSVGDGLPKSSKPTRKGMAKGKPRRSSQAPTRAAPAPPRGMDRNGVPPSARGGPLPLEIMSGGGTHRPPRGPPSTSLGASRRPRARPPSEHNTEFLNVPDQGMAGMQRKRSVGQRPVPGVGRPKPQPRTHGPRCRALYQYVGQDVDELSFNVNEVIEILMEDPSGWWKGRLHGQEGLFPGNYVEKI

[2] = molecular target: T2, GFP–MYO1F (human) (UniProt O00160); test: co-IP; GFP-specific nanobodies from RPE cells stably expressing GFP–MYO1F and transiently expressing Myc-tagged SH3BP2 or ASAP1 constructs; blot with anti-Myc and anti-GFP
T2 sequence: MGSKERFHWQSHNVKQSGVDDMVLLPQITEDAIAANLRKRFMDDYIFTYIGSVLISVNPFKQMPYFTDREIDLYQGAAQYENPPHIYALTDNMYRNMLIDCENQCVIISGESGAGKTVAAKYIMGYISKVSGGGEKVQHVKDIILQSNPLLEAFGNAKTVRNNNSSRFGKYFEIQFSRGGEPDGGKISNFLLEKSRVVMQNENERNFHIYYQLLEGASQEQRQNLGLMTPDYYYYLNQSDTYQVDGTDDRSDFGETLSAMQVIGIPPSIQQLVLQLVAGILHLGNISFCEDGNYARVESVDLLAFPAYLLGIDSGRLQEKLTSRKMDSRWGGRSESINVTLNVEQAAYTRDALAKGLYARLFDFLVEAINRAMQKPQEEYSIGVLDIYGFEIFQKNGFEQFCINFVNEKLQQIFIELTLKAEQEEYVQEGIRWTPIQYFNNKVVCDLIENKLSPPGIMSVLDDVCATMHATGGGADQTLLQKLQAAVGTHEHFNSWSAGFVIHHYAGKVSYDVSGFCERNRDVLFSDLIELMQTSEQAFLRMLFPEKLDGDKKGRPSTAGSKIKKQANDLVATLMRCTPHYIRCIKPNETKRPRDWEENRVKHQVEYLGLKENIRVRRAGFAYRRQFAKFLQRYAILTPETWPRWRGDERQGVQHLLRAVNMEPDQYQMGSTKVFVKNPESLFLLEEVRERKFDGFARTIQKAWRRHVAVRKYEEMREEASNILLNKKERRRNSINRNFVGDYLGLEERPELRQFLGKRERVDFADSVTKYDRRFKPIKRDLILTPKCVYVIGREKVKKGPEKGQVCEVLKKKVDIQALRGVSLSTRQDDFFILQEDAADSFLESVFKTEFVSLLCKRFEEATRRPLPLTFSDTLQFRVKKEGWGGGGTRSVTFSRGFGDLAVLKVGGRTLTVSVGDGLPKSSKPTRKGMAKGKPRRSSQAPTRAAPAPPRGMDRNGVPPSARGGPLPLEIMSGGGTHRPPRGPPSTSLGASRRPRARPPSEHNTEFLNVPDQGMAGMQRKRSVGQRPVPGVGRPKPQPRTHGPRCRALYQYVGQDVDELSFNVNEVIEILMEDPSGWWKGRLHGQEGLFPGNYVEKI

[3] = molecular target: T2, GFP–MYO1F (human); test: co-IP; anti-GFP antibodies and protein A Sepharose from RPE cells stably expressing GFP–MYO1F or GFP–MYO1FΔSH3 and transiently transfected with Myc-tagged partners; blot with anti-Myc; lysis in 50 mM Tris-HCl pH 7.4, 100 mM NaCl, 1% NP-40, 5 mM MgCl2, 5 mM ATP; also after siRNA knockdown of SH3KBP1 or ASAP1
[4] = molecular target: T2, GFP–MYO1F (human); test: co-IP; GFP-specific nanobodies from RPE cells stably expressing GFP–MYO1F and transiently expressing Myc-tagged SH3BP2 or ASAP1 constructs; blot with anti-Myc and anti-GFP; remark: listed apart in the source

binding [1]: binds
Molecule: endogenous SH3KBP1 (from UniProt Q96B97 1-665)

binding [2]: binds
binding [3]: binds
Molecule: Myc–ASAP1-3′ (amino acids 589–1129) (from UniProt Q9ULH1 589-1129) (domain or fragment)

Molecule: Myc–SH3KBP1 (from UniProt Q96B97 1-665)
binding [3]: binds

binding [4]: binds
B1: Myc-tagged SH3BP2 ΔPPVPANK (protein, UniProt P78314)
chain: MAAEEMHWPVPMKAIGAQNLLTMPGGVAKAGYLHKKGGTQLQLLKWPLRFVIIHKRCVYYFKSSTSASPQGAFSLSGYNRVMRAAEETTSNNVFPFKIIHISKKHRTWFFSASSEEERKSWMALLRREIGHFHEKKDLPLDTSDSSSDTDSFYGAVERPVDISLSPYPTDNEDYEHDDEDDSYLEPDSPEPGRLEDALMHPPAYPPPPVPTPRKPAFSDMPRAHSFTSKGPGPLLPPPPPKHGLPDVGLAAEDSKRDPLCPRRAEPCPRVPATPRRMSDPPLSTMPTAPGLRKPPCFRESASPSPEPWTPGHGACSTSSAAIMATATSRNCDKLKSFHLSPRGPPTSEPPKFLKIAEEDPPREAAMPGLFVPPVAPRPPALKLPVPEAMARPAVLPRPEKPQLPHLQRSPPDGQSFRSFSFEKPRQPSQADTGGDDSDEDYEKVPLPNSVFVNTTESCEVERLFKATSPRGEPQDGLYCIRNSSTKSGKVLVVWDETSNKVRNYRIFEKDSKFYLEGEVLFVSVGSMVEHYHTHVLPSHQSLLLRHPYGYTGPR

binding [3]: binds
binding [4]: binds
B2: Myc–SH3BP2 (protein, UniProt P78314 1-561)
chain: MAAEEMHWPVPMKAIGAQNLLTMPGGVAKAGYLHKKGGTQLQLLKWPLRFVIIHKRCVYYFKSSTSASPQGAFSLSGYNRVMRAAEETTSNNVFPFKIIHISKKHRTWFFSASSEEERKSWMALLRREIGHFHEKKDLPLDTSDSSSDTDSFYGAVERPVDISLSPYPTDNEDYEHDDEDDSYLEPDSPEPGRLEDALMHPPAYPPPPVPTPRKPAFSDMPRAHSFTSKGPGPLLPPPPPKHGLPDVGLAAEDSKRDPLCPRRAEPCPRVPATPRRMSDPPLSTMPTAPGLRKPPCFRESASPSPEPWTPGHGACSTSSAAIMATATSRNCDKLKSFHLSPRGPPTSEPPPVPANKPKFLKIAEEDPPREAAMPGLFVPPVAPRPPALKLPVPEAMARPAVLPRPEKPQLPHLQRSPPDGQSFRSFSFEKPRQPSQADTGGDDSDEDYEKVPLPNSVFVNTTESCEVERLFKATSPRGEPQDGLYCIRNSSTKSGKVLVVWDETSNKVRNYRIFEKDSKFYLEGEVLFVSVGSMVEHYHTHVLPSHQSLLLRHPYGYTGPR

binding [4]: binds
B3: Myc-tagged SH3BP2 K356A (protein, UniProt P78314 1-561)
chain: B2 chain with K356A
